Measurements reported in publication PMC12040169 (PLOS Biology, 2025).
Some of the results follow.

These compounds were tested on T1, CTL2-GFP (C. trachomatis L2/434/Bu, GFP-expressing). Details: bulk GFP, single well; 28.5 h, 10 µM; inhibitor.
T1 construct: L2/434/Bu, GFP-expressing
Parameters: species or system HeLa; Intracellular C. trachomatis growth in HeLa cells, bulk GFP fluorescence relative to DMSO

Structure (SMILES)	% of control remaining
COc1ccc([C@@]23CC[C@@H](NC(=O)Nc4ccc(OC(F)(F)F)cc4)C[C@@H]2N(C)CC3)cc1OC [CBK036455T]	97.1315%
C=CCn1c(Cc2csc(NC(=O)c3ccc([N+](=O)[O-])cc3Cl)n2)n[nH]c1=S [CBK295291]	151.758%
CCn1cncc1CN1CCC(O)(c2ccccc2F)CC1 [CBK282817]	105.346%
CCn1c(C)cc(C(=O)N2CCN(c3nccc(OC)n3)CC2)c1C [CBK305791]	104.394%
C(=N\N1CCN(Cc2cccc3ccccc23)CC1)/c1ccncc1 [CBK263003]	123.901%
CCN(CC)C(=O)C1CCCN1C(=O)c1ccnc(N(C)C)c1 (stereo not shown) [CBK305086]	147.406%
O=C(Cn1c(NCCCO)nc2ccccc21)c1ccc(Cl)c(Cl)c1 [CBK262905B]	109.803%
Cc1ccc2c(c1)C(=O)CC1(CCN(C(=O)C3CCCC3)CC1)O2 [CBK283718]	144.631%
CC(C)CNC(=S)N[C@H]1CO[C@H]2[C@@H]1OC[C@@H]2Nc1nccc(C(C)(C)C)n1 [CBK289523]	117.027%
CC(C)c1ncc(CN2CCC(CC(=O)N3CCN(c4ccccc4)CC3)CC2)cn1 [CBK286048]	107.601%
CSCCC(=O)N1CCC(Cn2cncn2)(C2CCCCC2)CC1 [CBK136799]	103.748%
COCCOCCOc1ccccc1OCCOCCOC [CBK009636]	150.709%
CCN1CCC(Oc2nccnc2OCc2cc(C)on2)CC1 [CBK082962T]	108.276%
CC(Oc1ccc(-c2ccccc2)cc1)C(=O)Nc1ccc2c(c1)OCCO2 (stereo not shown) [CBK268002]	131.458%
Cc1ccc(Cn2c(OCCN(C)C)nc3c2c(=O)n(C)c(=O)n3C)cc1 [CBK134241]	102.095%
CC(C)CNC(=O)c1cc(C2CN(Cc3c[nH]nc3C(C)(C)C)CCO2)nc2ccccc12 (stereo not shown) [CBK285925]	79.1602%
FC(F)(F)c1cccc(SCCc2ccccn2)n1 [CBK103719]	115.797%
CCOc1ccc(S(=O)(=O)Nc2cnccn2)cc1 [CBK270313]	97.4085%
O=C1NCCN1CCOc1nccnc1-c1ccc(F)cc1 [CBK106898]	123.616%
O=C(O)CCCN1C(=O)/C(=C/c2ccc(O)c(O)c2)SC1=S [CBK262852]	123.67%
COc1ccc(CNc2ccc(N3CCOCC3)c(C(=O)O)c2)cc1OC [CBK269915]	110.376%
COc1ccccc1-c1cn2ccnc2c(NCCc2ccccn2)n1 [CBK037980]	168.489%
CCN(CC(=O)O)S(=O)(=O)c1cc(C)ccc1OC [CBK268694]	125.231%
Cc1cc(-c2cn(C)nc2C2CCCN2C(=O)CC(C)(C)C)on1 (stereo not shown) [CBK283453]	126.106%
C=CCN1C(=O)C2(CC(=O)N(CCOc3ccccc3)C2=O)c2ccccc21 (stereo not shown) [CBK075159]	124.386%
CCc1nnc(NS(=O)(=O)c2ccc(N/C=C\C(=O)c3ccc4ccccc4c3)cc2)s1 [CBK263385]	19.1838%
CN1C(=O)COc2ccccc2CCCC[C@@H]2[C@H]1CCCN2CCO [CBK292112]	139.275%

Structure (SMILES)	% of control remaining
COc1ccc(N)cc1OCc1cn2ccccc2n1 [CBK295609]	154.088%
CCOC(=O)CNS(=O)(=O)c1cccc(Cl)c1C [CBK004702]	184.156%
CCc1noc(CN2CCN(c3ccc(C(=O)OC)cc3)CC2C)n1 (stereo not shown) [CBK306154]	133.968%
O=S(=O)(c1ccc(F)cc1F)N1CCN(Cc2ccc3c(c2)OCO3)CC1 [CBK074744]	108.512%
O=C(Nc1sc2c(c1C(=O)NCc1cccnc1)CCC2)c1ccco1 [CBK269599]	147.913%
CC1CCN(S(=O)(=O)c2ccc(C(=O)N3CCC(C(=O)O)CC3)cc2)CC1 [CBK297097]	107.14%
O=C(O)c1ccc(NC2=NS(=O)(=O)c3ccccc32)cc1 [CBK287084]	133.596%
OC1CCN(Cc2c([C@H]3CCCO3)[nH]c3ncccc23)CC1 [CBK286301]	85.8777%
CCC(Cc1ccccc1C)c1cc(O)c(C(c2ccccc2)C2CC2)c(=O)o1 (stereo not shown) [CBK016783]	88.193%
CN(C)S(=O)(=O)N(CC(=O)O)c1ccccc1 [CBK267660]	99.3796%
CNc1nc(NCCCn2c(C)cccc2=O)cc(C2CCOC2)n1 (stereo not shown) [CBK306875]	87.3991%
COc1ccccc1CN(C)CCc1ccccn1 [CBK261741G]	100%
COc1ccc(-n2cc(-c3ccncc3)nn2)cc1OC [CBK113106]	143.605%
Cc1ccc(-c2noc(CSc3nnc(CCc4ccccc4)n3-c3ccccc3)n2)cc1 [CBK268493]	104.517%
CC(NC(=O)C1CCN(CCCN(C)S(C)(=O)=O)CC1)c1cccc2ccccc12 (stereo not shown) [CBK148651]	82.1096%
O=c1cc(NCc2ccncc2)c2ccccc2o1 [CBK017259]	90.3367%
CCOc1ccc(C2=NN(C(=O)CCC(=O)O)C(c3ccc4nccnc4c3)C2)cc1 (stereo not shown) [CBK296703]	137.855%
O=C(Nc1ccc(F)cc1)C1CC(=O)n2c(nc3ccccc32)N1 (stereo not shown) [CBK287282]	146.458%
CN(C)CC(=O)Nc1ccc2n(c1=O)C[C@H]1C[C@@H]2CN(Cc2ccccn2)C1 [CBK289206]	101.737%
Cc1cccc(-n2nnnc2SC(C)C(=O)O)c1 (stereo not shown) [CBK287003]	118.028%
Cc1ccc(CNC(=O)c2ccc3c(c2)NC(=O)C(N2CCCC2)S3)cc1 (stereo not shown) [CBK071788]	64.6532%
Cc1nccn1CCCn1cncc1-c1ccc2c(c1)CC(C)(C)O2 [CBK281809]	112.011%
CCOc1ccc2cc(C3CC(c4ccccc4)=NN3C(=O)CCC(=O)O)c(Cl)nc2c1 (stereo not shown) [CBK296097]	97.0095%
c1cnc(NCc2cc3n(n2)CCN(CC2CCCC2)C3)nc1 [CBK307007]	105.483%
Cc1nc2c(OCCOc3ccccc3)cccn2c1N(C)CC1CC1 [CBK147272]	108.548%
O=C(NCc1ccco1)c1ccc2c(c1)OCO2 [CBK262133]	112.919%
O=C(O)CNC1=NC2(CCCCC2)Cc2ccccc21 [CBK287001]	127.956%

Entries listed so far that have a tert-butyl group, in the order listed:
Structure (SMILES)	% of control remaining
CC(C)CNC(=S)N[C@H]1CO[C@H]2[C@@H]1OC[C@@H]2Nc1nccc(C(C)(C)C)n1 [CBK289523]	117.027%
CC(C)CNC(=O)c1cc(C2CN(Cc3c[nH]nc3C(C)(C)C)CCO2)nc2ccccc12 (stereo not shown) [CBK285925]	79.1602%
Cc1cc(-c2cn(C)nc2C2CCCN2C(=O)CC(C)(C)C)on1 (stereo not shown) [CBK283453]	126.106%

(list continues)

Structure (SMILES)	% of control remaining
OCCNc1nc(Nc2ccc(O)cc2)nc2ccccc12 [CBK266606C]	137.804%
COc1ccc(CNC(=O)c2cc(S(=O)(=O)N3CCCC3)c[nH]2)cc1 [CBK304601]	146.984%
CCOC(=O)c1cnn2c(O)cc(CN3CCc4sccc4C3)nc12 [CBK305680]	104.028%
Cc1ccc(N2C(=O)C(CC(=O)Nc3cccc(F)c3)N(CCc3ccncc3)C2=O)cc1 (stereo not shown) [CBK268891]	140.791%
COc1cccc(CC(=O)NCCNc2cccc(F)c2C#N)c1 [CBK305684]	120.751%
Nc1ncccc1C(=O)OCc1ccc(-c2ccccc2)cc1 [CBK295353]	132.649%
O=C(Nc1cnc(-c2ccc(F)c(Cl)c2)c(-c2cccnc2)n1)c1cnccn1 [CBK036819]	133.663%
CC(C)(C)NCCN1CCn2c1nc1ccccc12 [CBK019113]	108.455%
Cc1ccccc1CNC(=O)c1ccc(C)c([N+](=O)[O-])c1 [CBK264010]	108.955%
Cc1cccc(-n2ncc3c2ncn2c(COc4ccccc4C)nnc32)c1 [CBK265567]	122.131%
CC(=O)Nc1cccc(-c2ccc(C(=O)NCc3ccc(F)cc3)c(N3CCN(C(=O)c4ccco4)CC3)n2)c1 [CBK106012]	107.066%
CCc1nn2c(=O)cc(CN3CCN(C(=O)c4cccs4)CC3)nc2s1 [CBK306474]	131.133%
Cc1cccnc1C(NC(=O)C1CCN(C(=O)N2CCCC2)CC1)c1cccs1 (stereo not shown) [CBK060124]	157.346%
O=S(=O)(NC1CCCC1)c1cccc(-c2nnc(-c3ccccc3)o2)c1 [CBK265716]	98.8634%
CCc1ccc(NC(=O)N2CCCCC2CCn2ccnc2)cc1 (stereo not shown) [CBK307453]	128.874%
S=C(Nc1ccccc1Cl)Nc1ccccc1-n1cccc1 [CBK018806]	117.06%
COCC(=O)N[C@H]1C[C@H]2C(=O)Nc3ccccc3C(=O)N2C1 [CBK289353]	108.507%
CN(C(=O)C1CCN(C(=S)NCc2ccccc2)CC1)C(c1ccccc1)c1ccccn1 (stereo not shown) [CBK060476]	115.418%
N#Cc1ccc(CNC(=O)N2CCCC(CO)C2)cc1 (stereo not shown) [CBK156043]	119.871%
CN1CCC(N2C[C@H](O)C[C@H]2c2nc(-c3ccc4c(c3)OCO4)no2)CC1 [CBK288931]	131.384%
O=C(O)CCCn1cc(NC(=O)c2ccccc2Br)cn1 [CBK270100]	141.766%
O=c1[nH]c2n[nH]c(=O)n2c2c(-c3ccccc3)c[nH]c12 [CBK288054]	138.201%
CCCC(C(=O)O)N1C(=O)C(=Cc2ccc(-c3ccc(C(=O)OCC)cc3)o2)SC1=S (stereo not shown) [CBK296983]	172.605%
Cc1ccc(OCC(=O)Nc2ccccc2CO)cc1 [CBK263600]	100%
CN(C)CCCOc1ccc2c(c1)Sc1ccccc1CC2=O [CBK058002]	117.747%
